Patent US8703438B2, “Ligand binding stabilization method for drug target identification” (The Regents of the University of California, priority 2008, dated 2014)
At least one structure is not confirmed: it was looked up by name or label, or the drawing left a doubt.

Amino acid sequences for entries named in this document (tags omitted).
UniProt P62942, whole entry: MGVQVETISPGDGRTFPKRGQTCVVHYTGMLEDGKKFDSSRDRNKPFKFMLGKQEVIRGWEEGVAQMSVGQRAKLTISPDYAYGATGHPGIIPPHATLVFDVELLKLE

Molecular target: T1, Recombinant human FKBP12 (Homo sapiens, UniProt P62942)
T1 construct: purchased R&D Systems 3777-FK
Assay: DARTS with recombinant FKBP12, subtilisin digestion
Assay type: binding
Conditions: drug 100 μM, 2 hr at 4° C., FIG. 2B

Compound: COC[C@H]1OC(=O)c2coc3c2[C@@]1(C)C1=C(C3=O)[C@@H]2CCC(=O)[C@@]2(C)C[C@H]1OC(C)=O [wortmannin]
- Proteolysis of FKBP12 by subtilisin: did not prevent proteolysis
